Source: patent publication US20100278787A1, “CARDIOMYOCYTE-LIKE CELL CLUSTERS DERIVED FROM HBS CELLS” (Cellartis AB, priority 2007, published 2010)
For some of these results: For at least one compound, name, drawing or mass did not settle the structure. Some entries share one result that the patent states for a list of compounds.

Columns and labels:
[1] = system: contracting clusters of cells; experiment: Functional receptors: contractile activity of contracting areas after pharmacological agents (method of Norström et al. 2006); assay type: cell-based, human; settings: agents administered to contracting areas; method and Table 1 of Norström et al. 2006
[2] = system: hBS cells (SA002); experiment: Yield of beating CMLC from differentiating hBS cells, counted visually; assay type: cell-based, human; settings: added with Activin A and bFGF in step 5, example 10, FIG. 15
Protocol: Spontaneously contracting cells were derived from undifferentiated hBS cells cultured on MEF cells (Heins et al 2004 Stem Cells). The cell lines used for this experiment could be the hBS cell line SA002, SA121, SA001, SA002.5, SA461 (Cellartis AB, Goteborg, Sweden, http://www.cellartis.com) and they can be propagated as described Heins et al. 2004. These cell lines are listed in the NIH stem cell registry and the UK Stem Cell bank. The hBS cells were detached from the feeder layer by incubation with collagenase IV (200 U/ml), for 10-15 minutes at 37° C. The cell suspension was transferred to a 15 ml tube, and after the cells had sedimented, the supernatant was removed. The colonies were resuspended in Knock Out DMEM supplemented with 20% FBS, 1% penicillin-streptomycin, 1% Glutamax, 0.5 mmol/l β-mercaptoethanol and 1% non-essential amino acids (all from Invitrogen, Carlsbad, Calif.) and dissociated mechanically into small aggregates of undifferentiated cells (0.2-0.4 mm) using a pipette. […]
The number of contracting CMLC was visually determined at day 6 or 7 after plating of formed 3D structures. […] The effect of the treatment on beating area characteristics was determined in terms of distribution in beating frequency, length, width, calculated area and structure in two experiments; one using plating medium with 20% FBS and one with plating medium containing 2% FBS. […]

| SMILES | Effect on contractile activity / contraction frequency [1] | Increase of yield compared to controls where only Activin A and bFGF are added [2] |
| --- | --- | --- |
| CC(=O)OCC[N+](C)(C)C [Acetylcholine] | reduces the contractile activity |  |
| C=C[C@@]1(C)CC(=O)[C@]2(O)[C@@]3(C)[C@@H](O)CCC(C)(C)[C@@H]3[C@H](O)[C@H](OC(C)=O)[C@@]2(C)O1 [Forskolin] | stimulatory response |  |
| Cn1cc(C2=C(c3ccc(Cl)cc3Cl)C(=O)NC2=O)c2ccccc21 [SB 216763] |  | 2-3 fold |
| Fc1ccc(-c2nc3n(c2-c2ccncc2)CCS3)cc1 [SKF-86002] |  | 2-3 fold |
